The list shows a part of the results. This data set is noisy: repeats of one test often differ as much as different tests do.
The compounds below were run against HuR (ELAVL1) - TNFalpha ARE RNA complex (UniProt Q15717) (assay: AlphaScreen HuR-RNA complex signal Z-score relative to positive controls (secondary screen) (Z-score (SD units of positive control)); higher = more complex signal). Conditions: screen stage: secondary re-screen.

Amino acid sequences for entries named in this document (tags omitted).
UniProt Q15717, whole entry: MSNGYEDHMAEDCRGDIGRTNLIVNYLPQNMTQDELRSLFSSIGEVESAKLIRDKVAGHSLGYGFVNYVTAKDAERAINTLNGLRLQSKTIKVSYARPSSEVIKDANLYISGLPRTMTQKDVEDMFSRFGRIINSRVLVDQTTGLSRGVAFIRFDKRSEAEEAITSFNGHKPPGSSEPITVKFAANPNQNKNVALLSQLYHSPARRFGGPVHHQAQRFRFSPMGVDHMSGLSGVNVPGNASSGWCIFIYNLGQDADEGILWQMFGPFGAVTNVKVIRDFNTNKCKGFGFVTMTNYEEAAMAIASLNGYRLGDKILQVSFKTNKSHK

| SMILES | AlphaScreen HuR-RNA complex signal Z-score |
| --- | --- |
| CO[C@H]1C[C@H](O[C@H]2CC[C@]3(C=O)[C@H]4CC[C@]5(C)[C@@H](C6=CC(=O)OC6)CC[C@]5(O)[C@@H]4CC[C@]3(O)C2)O[C@H](C)[C@H]1O | 0.603 |
| O=[N+]([O-])c1cc([As](=O)(O)O)ccc1O | 1.85 |
| C[C@H]1C(=O)O[C@@H]2CCN3CC=C(COC(=O)[C@](C)(O)[C@]1(C)O)[C@H]23 | 0.471 |
| Cc1ccc(/N=C/N(C)/C=N/c2ccc(C)cc2C)c(C)c1 | 0.731 |
| CN1C[C@H](CNC(=O)OCc2ccccc2)C[C@@H]2c3cccc4c3c(cn4C)C[C@H]21 | 0.0392 |
| NCCc1ccc(O)cc1 | 0.456 |
| [O-][n+]1ccccc1[S-].[O-][n+]1ccccc1[S-].[Zn+2] | 0.889 |
| c1ccc2c(c1)sc1ccccc12 | 1.24 |
| Nc1ccc([As](=O)(O)O)cc1 | -0.219 |
| O=C(O)CCCO | 0.777 |
| CC(C)N1C(=O)c2ccccc2NS1(=O)=O | 0.545 |
| CC(=O)O[C@H]1C[C@@H](OC(C)=O)C(C)(C)C2C[C@@H](OC(C)=O)[C@]3(C)C(CC[C@@]4(C)[C@H](c5ccoc5)C(=O)[C@H]5O[C@]543)[C@]21C (some centres not stated) | 0.786 |
| CC1(C)C(=O)C=C[C@]2(C)[C@H]3CC[C@@]4(C)[C@H](c5ccoc5)OC(=O)[C@H]5O[C@]54[C@]3(C)[C@H](O)C[C@@H]12 | -0.11 |
| C[C@]12CCC(=O)C=C1C=C[C@@H]1[C@@H]2CC[C@@]2(C)[C@H]1CC[C@@]2(O)CCC(=O)O | 1.61 |
| CN(C)C(=S)SSC(=S)N(C)C | 2.33 |
| C[N+]12CCC(CC1)C(OC(=O)C(O)(c1ccccc1)c1ccccc1)C2 (configuration not stated) | 0.618 |
| CC[C@H]1CN2CCc3cc(OC)c(OC)cc3[C@@H]2C[C@@H]1C[C@H]1NCCc2cc(OC)c(OC)cc21 | 0.466 |
| CN1CCc2cc3c(cc2[C@H]1[C@@H]1OC(=O)c2c1ccc1c2OCO1)OCO3 | 0.895 |
| CN1C[C@H](C(=O)N[C@]2(C)O[C@@]3(O)[C@@H]4CCCN4C(=O)[C@H](Cc4ccccc4)N3C2=O)C[C@@H]2c3cccc4[nH]cc(c34)C[C@H]21 | 0.646 |
| CCCCCCCCCCCCCCCC[n+]1ccccc1 | -0.413 |
| CCC(C)C(=O)OC1CC2(C)C(c3ccoc3)OC(=O)CC23OC2(C)OC34C(OC(=O)C(C)C)C3(O)C(OC(=O)C5(C)OC5C)C5(C)CC3(O)C(C)(C5CC(=O)OC)C14O2 (configuration not stated) | -0.0335 |
| CN1[C@H]2C[C@H](OC(=O)[C@H](CO)c3ccccc3)C[C@@H]1[C@@H](O)C2 | 0.506 |
| Cc1cc(O)ccc1Cl | 0.694 |
| C[C@@H](CO)NC(=O)[C@@H]1C=C2c3cccc4[nH]cc(c34)C[C@H]2N(C)C1 | 0.741 |
| CC(NC(C)(C)C)C(=O)c1cccc(Cl)c1 (configuration not stated) | 2.13 |
| C[CH2][Hg][S]c1ccccc1C(=O)[O-].[Na+] | 1.84 |
| CC[C@@H](C)C(=O)O[C@H]1[C@H](O)[C@H]2[C@@H](CN3C[C@@H](C)CC[C@H]3[C@@]2(C)O)[C@@H]2C[C@]34O[C@]5(O)[C@@H](OC(=O)[C@@](C)(O)CC)CC[C@@]3(C)[C@@H]5[C@@H](OC(C)=O)[C@@H](OC(C)=O)[C@H]4[C@@]21O | -0.304 |

A second format for part of the listing above.
SMILES,AlphaScreen HuR-RNA complex signal Z-score
CO[C@H]1C[C@H](O[C@H]2CC[C@]3(C=O)[C@H]4CC[C@]5(C)[C@@H](C6=CC(=O)OC6)CC[C@]5(O)[C@@H]4CC[C@]3(O)C2)O[C@H](C)[C@H]1O,0.603
O=C(O)CCCO,0.777
